# Measurements published in paper PMC10108010, “Fluorogenic Granzyme A Substrates Enable Real‐Time Imaging of Adaptive Immune Cell Activity” (Angewandte Chemie (International Ed. in English), 2023).
# Protein sequences, listed by entry. Tags and fused reporters are not part of them. Residues count along the entry.
# UniProt P12544, 29-262 limits assumed: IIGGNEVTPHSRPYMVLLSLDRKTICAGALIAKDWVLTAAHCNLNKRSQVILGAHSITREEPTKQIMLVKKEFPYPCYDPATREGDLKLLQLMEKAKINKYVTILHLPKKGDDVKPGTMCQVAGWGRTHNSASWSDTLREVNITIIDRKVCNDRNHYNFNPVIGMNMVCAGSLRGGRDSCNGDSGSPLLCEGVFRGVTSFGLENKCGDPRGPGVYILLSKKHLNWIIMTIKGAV
# Columns and labels:
# [1] = tested on: active hGzmA compared to pro-hGzmA, GzmB, GzmK, caspases, HNE, MMPs, cath B and cath L; assay: Protease selectivity screen of compound 9; conditions: compound 9 20 μM, proteases 20 nM, 37 °C, 60 min; fluorescence fold increase, n=3
# [2] = tested on: NK-92 cells; assay: Live-cell confocal microscopy of NK-92 cells; assay type: cell-based, human; conditions: compound 9 5 μM, 1 h; Z-stack confocal, 3 experiments
# Procedure: Figure S9. Brightfield and fluorescence confocal microscopy merged images of live NK-92 cells upon incubation with compound 9. Representative microscopy images from 3 independent experiments of live NK-92 cells upon incubation with […]
# dichloroisocoumarin (5 µM) was used as a GzmA inhibitor for 2 h prior to labeling.
# (§1) 5.0) prior to the enzyme assays.
# (§2) All the tubes were incubated
# (§3) NK- 92 cell inhibition and imaging. […]
# (§4) Microsystems) and qualitatively analysed using Fiji.
# [3] = tested on: active GzmA secreted by NK-92 cells; assay: Detection of active GzmA in supernatants of stimulated NK-92 cells; assay type: cell-based, human; conditions: NK-92 stimulated with PMA and ionomycin; supernatant + compound 9 for 1 h; 725 nm, n=3
# From the text: Encouraged by the high reactivity of compound 9, we evaluated its potential application to detect active GzmA secreted by immune cells. NK cell‐based therapies are regarded as potential anticancer treatments due to their ability to secrete granzymes to the extracellular space and cause cytotoxicity in cancer cells.[24] […] To test the utility of compound 9 to measure active GzmA in cell supernatants, we performed degranulation assays in human NK‐92 cells (e.g., a patient‐derived cell line that expresses higher levels of GzmA than healthy NK cells)[25] and also tested GzmA‐negative cells (e.g., HaCaT keratinocytes, Figure S8). NK‐92 cells were stimulated with […] and ionomycin (Figure 5).[26] Cell supernatants were collected and incubated with compound 9 for 1 h, followed by spectroscopic measurements. […] Previous reports indicate that granzyme activity can be detected inside NK‐92 cells[[11b]] and that granzymes can be found within activated immune cells due to intracellular granular leakage,[27] even though granzyme activity is known to be reduced in acidic granules. To study this observation, we performed Z‐stack live‐cell confocal microscopy in NK‐92 cells after incubation with compound 9.
# as §1, §2, §3, §4
# [4] = target: T1, hGzmA (Homo sapiens, UniProt P12544); assay: Relative fluorescence quantum yield before/after incubation with hGzmA; conditions: standard IR-125, Tris buffer (pH 8)
# Procedure: Figure 3 Synthetic scheme for the preparation of fluorogenic substrates for hGzmA. Relative fluorescence quantum yields (standard: IR‐125) of the compound 9 before and after incubation with hGzmA (20 nM) in Tris buffer (pH 8). Pictograms of solutions of the compound 9 (50 μM) in the absence (left) or presence (right) of hGzmA under 650 nm excitation. TEXT PRINTED IN THE PICTURE: 9: no hGzmA QY < 2%; + hGzmA QY = 30% […]
# (§5) nebuliser gas. Data acquisition was performed with MassLynx software. 1H-NMR spectra were recorded using Bruker Avance III spectrometer operated at 500 MHz.
# (§6) 13C-NMR spectra were recorded using Bruker Avance operated at 126 MHz. Chemical shifts were reported in ppm on the δ scale relative to a residual solvent (CDCl 3: δ = […]
# (§7) 13C-NMR). Multiplicities are referred by the following abbreviations: s = singlet, d = doublet, t = triplet, dd = doublet doublets, ddd = double double doublet, dt = double triplet, q = quartet and m = multiplet.
# (§8) Photophysical calculations. Spectroscopic data were recorded on a Synergy HT spectrophotometer (Biotek). Compounds were dissolved at the indicated concentrations and spectra were recorded at 37 °C.
# In vitro characterization assays. Enzymatic assays were run in a 384-well format in PCR opaque microplates (Thermo Scientific). […]
# [5] = target: T1, hGzmA; assay: Fluorogenic response to active recombinant hGzmA (time-lapse emission, spectra, fold increase)
# Procedure: (§9) Figure 4 In vitro characterization of compound 9 in response to hGzmA. a) Time‐lapse fluorescence emission (725 nm) of compound 9 (20 μM) in the absence (black circles) or presence (red circles) of hGzmA (20 nM) in Tris buffer (pH 8) at 37 °C. Data as means±SD (n=3). Inset) Kinetic constants of compound 9 after reaction with hGzmA calculated using the Michaelis–Menten equation. Data presented as means±SD (n=3). b) Fluorescence spectra of compound 9 (20 μM) after incubation with hGzmA (20 nM, red) and in the absence (black) or presence of 3,4‐dichloroisocoumarin (100 μM, grey) in Tris buffer (pH 8). Representative plots from 3 independent experiments. c) Fluorescence fold increase of compound 9 (20 μM) after incubation with different proteases (all at 20 nM) at 37 °C for 60 min. Data presented as means±SD (n=3) and p values obtained from one‐way ANOVA (**** for p<0.0001). Inset) Chemical structure of the commercial Z‐FR‐AMC. d) Fluorescence enhancement of compound 9 and Z‐FR‐AMC (both at 20 μM) after incubation with hGzmA (20 nM) in Tris buffer (pH 8) at 37 °C for 60 min. Data presented as means±SD (n=3). TEXT PRINTED IN THE PICTURE: (a) 9 + hGzmA: Km: 6.9±1.0×10^-6 M; kcat: 0.26±0.04 s^-1; kcat/Km: 3.7±0.2×10^4 M^-1s^-1 […]
# as §5, §6, §7, §8
# In vitro characterization assays. Enzymatic assays were run in a 384-well format in PCR opaque microplates (Thermo Scientific). All experiments were performed at least in triplicate. hGzmA assays were performed in Tris buffer (0.05 M TRIS pH 8.0 containing 0.15 M NaCl and 0.01% Triton X-100). mGzmA assays were performed in Tris buffer (0.1 M TRIS, pH 8.5). hGzmB assays were performed in Tris buffer (0.05 M Tris-HCl, 0.1 M NaCl, pH 7.4). Human neutrophil elastase assays were performed in Tris buffer (0.05 M Tris, 1 M NaCl, 0.01% m/v Triton X-100, pH 8). hGzmK assays were performed in Tris buffer (0.05 M Tris, 1 M NaCl, 0.05% m/v Triton X-100, pH 7.5). […]
# (§10) assays were performed in MES buffer (25 mM MES, 5 mM DTT, pH 6.0). […] Proteolytic activity was determined by calculating the fold change in fluorescence signal over background signal. […]
# [6] = Emission wavelength / spectral properties; assay type: physicochemical; conditions: comparison of compound 9 and Z-FR-AMC
# [7] = target: T1, hGzmA; assay: Michaelis-Menten kinetics with hGzmA
# Procedure: as §9
# Next, we determined the kinetic properties of compound 9 as a substrate for hGzmA using Michaelis–Menten's equation (Figures 4 and S4). In these experiments, we measured the maximum rate (v max), as well as the Michaelis (K m) and the catalytic rate (k cat) constants. […] To the best of our knowledge, these are the highest k cat/K m values reported to date for NIR GzmA substrates and outperform previously reported probes.[17] This improvement in reactivity can be partially attributed to the enhanced accessibility of the scissile bond in compound 9 due to the addition of the 4‐aminobenzyl alcohol spacer. […] Finally, we also compared the performance of compound 9 to the commercial substrate Z‐FR‐AMC (Figure 4).
# Figure S3. Limit of detection of compound 9 for hGzmA. The hGzmA […]
# assays were performed with com pound 9 (20 µM) in Tris buffer (pH 8) at 37 °C. Data […]
# presented as means±SD (n=3). LoD = 472 pM.
# Figure S4. Kinetics of the compound 9 upon reaction with hGzmA. a) […]
# Representative (from 3 independent experiments) time- lapse fluorescence emission […]
# derived from the reaction of hGzmA (20 nM) and compound 9 at different […]
# concentrations [2.5 μM, 5 μM, 7.5 μM, 10 μM, 15 μM, 20 μM]. b) Initial rates (V0) were […]
# plotted against different concentrations of compound 9 (2.5, 5, 7.5, 10, 15 and 20 μM) […]
# when incubated with hGzmA (20 nM) in Tris buffer (pH 8) at 37°C . […]
# as §10
# [8] = target: T1, hGzmA; assay: HPLC-MS analysis of reaction products of compound 9 with hGzmA; conditions: compound 9 20 µM, hGzmA 20 nM, Tris buffer (pH 8), 37 °C, 90 min; traces at 650 nm
# Procedure: Figure S2. HPLC-MS traces of compound 9 before and after reaction with
# hGzmA. Compound 9 (20 µM) was incubated with hGzmA (20 nM) in Tris buffer (pH
# 8) at 37°C for 90 min. HPLC traces were monitored at 650 nm before and after the
# reaction. m/z (calc. for compound 9): 971.5, m/z (calc. for hemicyanine): 384.2.
# (1 picture or pasted object on this page, not shown here)
# [9] = hGzmA 20 nM, compound 9 2.5-20 μM, Tris buffer (pH 8), 37 °C, means±SD, n=3
compound,measurement,setting,value
CC[C@H](C)[C@H](NC(C)=O)C(=O)NCC(=O)N[C@@H](CC(N)=O)C(=O)N[C@@H](CCCNC(=N)N)C(=O)Nc1ccc(COc2ccc3c(c2)OC2=C(/C=C/C4=[N+](C)c5ccccc5C4(C)C)CCCC2=C3)cc1,selectivity over other proteases (in words),[1],reacting preferentially with active hGzmA compared to other proteases
same,intracellular fluorescence (in words),[2],bright intracellular fluorescence in NK‐92 cells
same,fluorescence of cell supernatants (in words),[3],significantly brighter fluorescence in supernatants from stimulated NK‐92 cells when compared to non‐stimulated cells
same,"relative fluorescence quantum yield, + hGzmA",[4]; after incubation with hGzmA (20 nM),30%
same,"relative fluorescence quantum yield, no hGzmA",[4]; before incubation with hGzmA,< 2%
same,fluorescence increase relative to Z-FR-AMC,"[5]; both at 20 μM, hGzmA 20 nM, Tris buffer (pH 8), 37 °C, 60 min, n=3",18 fold
same,response time and signal stability (in words),"[5]; compound 9 20 μM, hGzmA 20 nM, Tris buffer (pH 8), 37 °C",response within minutes and a stable fluorescence readout for several hours
same,fluorescence increase after enzymatic reaction,"[5]; compound 9 20 μM, hGzmA 20 nM, Tris buffer (pH 8), 37 °C, 725 nm, n=3",around 20 fold
same,emission after enzymatic reaction,"[5]; compound 9 with active recombinant hGzmA, NIR emission",> 700 nm
same,emission wavelength,[6],≈ 720 nm
same,kcat/Km,"[7]; hGzmA 20 nM, Tris buffer (pH 8), 37 °C, means±SD, n=3 (figure)",3.7±0.2×10^4 M^-1s^-1
same,Km,[7]; [9],6.9 µM
same,kcat,[7]; [9],0.26 ± 0.04 s⁻¹
same,kcat/Km,"[7]; hGzmA, Michaelis-Menten, rounded",around 37 000 M^−1 s^−1
same,cleavage site (HPLC-MS),[8],enzymatic cleavage happens after the Arg residue

# The match of structure and compound is tentative.
